Measurements reported in PubChem BioAssay AID1259424 (University of Nebraska Medical Center, 2018).
Shown is an unselected part of about 14,000 deposited reagents. 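Higher correlation or smaller distance means closer resemblance to KSR1 loss; control wells, including KSR1 knockdowns, recur on many plates.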 Reagent sequences are not shown. Not given: the time to read-out.

Test: 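Rank knockdowns across the genome by resemblance to the KSR1 depletion profile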 (primary screen)
Cells: human HCT116 colon cancer cells
Reagent: siRNA pool against human genes, 50 nM
Detection: 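Log2 levels of six mRNAs (branched-DNA multiplex), adjusted by two reference genes and the non-targeting median, then scored against the average KSR1 knockdown pattern as Pearson r and euclidean distance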
Direction: mean correlation with KSR1 profile and KSR1 correlation: higher = expression change more like KSR1 knockdown; mean distance from KSR1 profile: higher = expression change less like KSR1 knockdown

target gene	mean correlation with KSR1 profile	mean distance from KSR1 profile	KSR1 correlation, replicate 1	KSR1 correlation, replicate 2	KSR1 correlation, replicate 3
GSC2	0.195	2.77	-0.126	-0.399	0.32
ERN1	0.0753	5.28	0.243	-0.158	-0.194
H2AC12	0.277	2.62	0.335	0.305	-0.0605
SLIT3	-0.256	1.92	-0.264	-0.356	-0.28
STON2	0.342	2.76	0.192	0.436	0.133
ZNRD2	-0.376	2.04	-0.528	-0.438	-0.0784
UBE2D4	0.567	0.787	0.757	0.458	0.56
ZNF354A	-0.437	2.71	0.0652	-0.486	-0.115
EFNA3	-0.47	2.82	-0.547	-0.379	-0.259
NPDC1	-0.578	1.88	-0.587	-0.827	-0.618
RAB8B	-0.397	1.36	-0.426	-0.225	-0.325
RASSF7	0.214	2.48	0.319	0.197	-0.071
TBC1D15	0.104	1.7	-0.192	-0.0542	0.135
CRCP	0.0477	1.49	-0.661	-0.416	-0.033
GEMIN7	0.596	1.28	0.683	0.622	0.364
DRD1	0.806	1.52	0.822	0.786	0.76
ST18	0.668	0.756	0.649	0.56	0.703
IFNA6	-0.0302	1.58	-0.0649	-0.0943	0.085
RAP1B	-0.168	2.08	-0.247	0.00786	0.0618
HTATIP2	0.87	1.48	0.969	0.844	0.577
DRD4	0.773	1.07	0.683	0.696	0.794
PAAF1	-0.0086	1.78	-0.392	0.0397	-0.157
QDPR	0.74	3.2	0.791	0.717	0.742
TRIM28	0.239	1.72	0.164	-0.0164	0.394
CAMK2B	-0.79	2.41	-0.394	-0.506	-0.903
PTOV1	-0.316	3.27	-0.574	-0.383	-0.0686
METTL22	0.25	1.54	0.236	-0.108	-0.0505
CCDC59	-0.513	2.11	-0.358	-0.645	-0.548
NOP2	-0.265	3.95	-0.315	-0.424	-0.296
AP1M1	-0.294	3.56	-0.0611	-0.0756	-0.386
ARL4C	-0.432	3.06	-0.399	-0.453	-0.423
CLTC	-0.307	3.69	-0.138	-0.517	-0.372
LRIF1	-0.574	1.75	-0.398	-0.514	-0.436
SLC35A3	-0.0702	1.19	0.0384	-0.38	-0.00695
CYB5R3	-0.00273	2.72	-0.307	0.0457	0.331
RPGRIP1	-0.357	3.36	-0.458	-0.262	-0.159
PAEP	0.204	1.7	0.385	0.473	-0.13
STYXL1	-0.114	3.25	-0.0598	-0.464	-0.0654
GSS	-0.238	3.08	-0.0287	-0.312	-0.647
SPAG5	0.0757	2.5	0.035	0.356	-0.00945
TCF20	0.601	1.72	0.613	0.582	0.36
GTF2H2	-0.179	2.59	-0.239	-0.128	-0.242
SRSF11	0.0779	2.53	0.0629	-0.0573	0.212
FBXO30	0.401	4.03	0.358	0.418	0.246
TMEM74B	-0.109	1.76	-0.0208	-0.134	-0.322
TSPAN16	0.0704	0.904	0.0619	-0.48	-0.234
PCDHA12	0.225	2.48	0.164	-0.13	0.323
GZMK	0.447	1.96	0.36	0.385	0.529
ZNF229	0.218	2.88	0.318	-0.0113	0.401
PTK2B	0.609	2.69	0.696	0.691	0.555

Copied from the entries so far for reference:
target gene	mean correlation with KSR1 profile	mean distance from KSR1 profile	KSR1 correlation, replicate 1	KSR1 correlation, replicate 2	KSR1 correlation, replicate 3
TMEM74B	-0.109	1.76	-0.0208	-0.134	-0.322
TSPAN16	0.0704	0.904	0.0619	-0.48	-0.234
PCDHA12	0.225	2.48	0.164	-0.13	0.323
GZMK	0.447	1.96	0.36	0.385	0.529
ZNF229	0.218	2.88	0.318	-0.0113	0.401
PTK2B	0.609	2.69	0.696	0.691	0.555
